# Source: the supplement of paper PMC8728848
# Some of the results follow.
# How the values were obtained:
# Assay in all cases: glycan array binding signal (z-score within array); higher = stronger binding
# Details in all cases: glycan notation: IUPAC condensed, linker removed
# [1] = molecular target: Fuc(a1-2)Gal(b1-4)GlcNAc(b1-3)Gal(b1-4)GlcNAc(b1-3)Gal(b1-4)GlcNAc
# Outline: (§1)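 The Consortium for Functional Glycomics database supplied 3228 glycan arrays, of which those lacking an available protein sequence were dropped. The binding signal, a within-array Z-score, was averaged across arrays of the same protein sequence and across linkers. Negative scores can be read as non-binding.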
# [2] = molecular target: Fuc(a1-2)Gal(b1-4)GlcNAc(b1-3)GalNAc
# Outline: as §1
# [3] = molecular target: Fuc(a1-2)Gal(b1-4)GlcNAc(b1-3)[Fuc(a1-2)Gal(b1-4)GlcNAc(b1-6)]GalNAc
# Outline: as §1
# [4] = molecular target: Fuc(a1-2)Gal(b1-4)GlcNAc(b1-3)[Fuc(a1-3)[Gal(b1-4)]GlcNAc(b1-6)]Gal(b1-4)Glc
# Outline: as §1
# [5] = molecular target: Fuc(a1-2)Gal(b1-4)GlcNAc(b1-6)GalNAc
# Outline: as §1
# [6] = molecular target: Fuc(a1-2)Gal(b1-4)GlcNAc6S
# Outline: as §1
# [7] = molecular target: Fuc(a1-2)Gal(b1-4)[Fuc(a1-3)]GlcNAc
# Outline: as §1
# [8] = molecular target: Fuc(a1-2)Gal(b1-4)[Fuc(a1-3)]GlcNAc(b1-2)Man(a1-3)[Fuc(a1-2)Gal(b1-4)[Fuc(a1-3)]GlcNAc(b1-2)Man(a1-6)]Man(b1-4)GlcNAc(b1-4)[Fuc(a1-6)]GlcNAc
# Outline: as §1
# [9] = molecular target: Fuc(a1-2)Gal(b1-4)[Fuc(a1-3)]GlcNAc(b1-2)[Fuc(a1-2)Gal(b1-4)[Fuc(a1-3)]GlcNAc(b1-4)]Man(a1-3)[Fuc(a1-2)Gal(b1-4)[Fuc(a1-3)]GlcNAc(b1-2)Man(a1-6)]Man(b1-4)GlcNAc(b1-4)GlcNAc
# Outline: as §1
# [10] = molecular target: Fuc(a1-2)Gal(b1-4)[Fuc(a1-3)]GlcNAc(b1-3)Gal(b1-4)[Fuc(a1-3)]GlcNAc
# Outline: as §1
# [11] = molecular target: Fuc(a1-2)Gal(b1-4)[Fuc(a1-3)]GlcNAc(b1-3)Gal(b1-4)[Fuc(a1-3)]GlcNAc(b1-3)Gal(b1-4)[Fuc(a1-3)]GlcNAc
# Outline: as §1
# [12] = molecular target: Fuc(a1-2)Gal(b1-4)[Fuc(a1-3)]GlcNAc(b1-3)GalNAc
# Outline: as §1
# [13] = molecular target: Fuc(a1-2)Gal(b1-4)[Fuc(a1-3)]GlcNAc(b1-3)[Neu5Ac(a2-6)Gal(b1-4)GlcNAc(b1-6)]Gal(b1-4)Glc
# Outline: as §1
# [14] = molecular target: Fuc(a1-2)Gal3S(b1-4)GlcNAc
# Outline: as §1
# [15] = molecular target: Fuc(a1-2)Gal6S(b1-3)GlcNAc
# Outline: as §1
# [16] = molecular target: Fuc(a1-2)Gal6S(b1-3)GlcNAc6S
# Outline: as §1
# Fuc(a1-2)Gal6S(b1-4)Glc = molecular target: Fuc(a1-2)Gal6S(b1-4)Glc
# Outline: as §1
# [17] = molecular target: Fuc(a1-2)Gal6S(b1-4)Glc6S
# Outline: as §1
# Fuc(a1-2)[Gal(a1-3)]Gal = molecular target: Fuc(a1-2)[Gal(a1-3)]Gal
# Outline: as §1
# [18] = molecular target: Fuc(a1-2)[Gal(a1-3)]Gal(b1-3)GalNAc
# Outline: as §1
# [19] = molecular target: Fuc(a1-2)[Gal(a1-3)]Gal(b1-3)GalNAc(b1-3)Gal(a1-4)Gal(b1-4)Glc
# Outline: as §1
# [20] = molecular target: Fuc(a1-2)[Gal(a1-3)]Gal(b1-3)GlcNAc
# Outline: as §1
# [21] = molecular target: Fuc(a1-2)[Gal(a1-3)]Gal(b1-3)GlcNAc(b1-2)Man(a1-3)[Fuc(a1-2)[Gal(a1-3)]Gal(b1-3)GlcNAc(b1-2)Man(a1-6)]Man(b1-4)GlcNAc(b1-4)GlcNAc
# Outline: as §1
# [22] = molecular target: Fuc(a1-2)[Gal(a1-3)]Gal(b1-3)GlcNAc(b1-2)Man(a1-3)[Fuc(a1-2)[Gal(a1-3)]Gal(b1-3)GlcNAc(b1-2)Man(a1-6)]Man(b1-4)GlcNAc(b1-4)[Fuc(a1-6)]GlcNAc
# Outline: as §1
# [23] = molecular target: Fuc(a1-2)[Gal(a1-3)]Gal(b1-3)GlcNAc(b1-3)GalNAc
# Outline: as §1
# [24] = molecular target: Fuc(a1-2)[Gal(a1-3)]Gal(b1-3)GlcNAc(b1-6)GalNAc
# Outline: as §1
# [25] = molecular target: Fuc(a1-2)[Gal(a1-3)]Gal(b1-4)Glc
# Outline: as §1
# [26] = molecular target: Fuc(a1-2)[Gal(a1-3)]Gal(b1-4)GlcNAc
# Outline: as §1
# [27] = molecular target: Fuc(a1-2)[Gal(a1-3)]Gal(b1-4)GlcNAc(b1-2)Man
# Outline: as §1
# [28] = molecular target: Fuc(a1-2)[Gal(a1-3)]Gal(b1-4)GlcNAc(b1-2)Man(a1-3)[Fuc(a1-2)[Gal(a1-3)]Gal(b1-4)GlcNAc(b1-2)Man(a1-6)]Man(b1-4)GlcNAc(b1-4)GlcNAc
# Outline: as §1
# [29] = molecular target: Fuc(a1-2)[Gal(a1-3)]Gal(b1-4)GlcNAc(b1-2)Man(a1-3)[Fuc(a1-2)[Gal(a1-3)]Gal(b1-4)GlcNAc(b1-2)Man(a1-6)]Man(b1-4)GlcNAc(b1-4)[Fuc(a1-6)]GlcNAc
# Outline: as §1
# [30] = molecular target: Fuc(a1-2)[Gal(a1-3)]Gal(b1-4)GlcNAc(b1-3)GalNAc
# Outline: as §1
# [31] = molecular target: Fuc(a1-2)[Gal(a1-3)]Gal(b1-4)GlcNAc(b1-3)[Fuc(a1-2)[Gal(a1-3)]Gal(b1-4)GlcNAc(b1-6)]GalNAc
# Outline: as §1
# [32] = molecular target: Fuc(a1-2)[Gal(a1-3)]Gal(b1-4)GlcNAc(b1-6)GalNAc
# Outline: as §1
# [33] = molecular target: Fuc(a1-2)[Gal(a1-3)]Gal(b1-4)[Fuc(a1-3)]Glc
# Outline: as §1
# [34] = molecular target: Fuc(a1-2)[Gal(a1-3)]Gal(b1-4)[Fuc(a1-3)]GlcNAc
# Outline: as §1
# [35] = molecular target: Fuc(a1-2)[Gal(a1-3)]Gal(b1-4)[Fuc(a1-3)]GlcNAc(b1-3)GalNAc
# Outline: as §1
binder,measurement,setting,value
PX14343E-bfa-545-24-545 (Bacteroides fragilis) (protein) LDRYPQEELSDGSFWKTPDDANKVVSDLYGYLSTWDQDNDINSDNATMGIKWAAGNVSKGIYDPADQGWSGDYANVRQCNLILSKIDEIPDYPEADKTKALGQVYFFRAYIYFNLIRSFGDVPYIDKPLDLKDMEGITRMPRAEVYEKIMADFDKAIAALPTEWGASDYGRVTKGAAMAMKARAALYYGNWDTAATEAKNVMDLGLYELYDKDNTGKYAELFWEKADGCDEFILVTQFNYPDKTHYLMGWECFPTKGWGGMNPTQSLVDAFEDSEGAPISKSKIYDPTDPFKNRDPRLEVDILHDGEEMYGVTIKVAPLASSGSTGINQHNDATETGYYGQKWLDPSLDPLSDGWNMGKDWVHIRYAEVLLTYAEAKNELQGLDPEAFDAVNQVRRRVGMPELQNTDPSKPTYCATQDDLRQRIRNEWRVEFCLEGGKRMWDIRRWGIAKDVLNAPFEGLKYKIVDNPNDPDKKVDGGKMCILYQGDPIILSGSRYSDNNYLFPVPQSEIDLNPALTQNPGY,glycan array binding signal (z-score),[1],-0.411
same,glycan array binding signal (z-score),[2],-0.093
same,glycan array binding signal (z-score),[3],-0.256
same,glycan array binding signal (z-score),[4],-0.108
same,glycan array binding signal (z-score),[5],-0.233
same,glycan array binding signal (z-score),[6],-0.655
same,glycan array binding signal (z-score),[7],-0.665
same,glycan array binding signal (z-score),[8],0.859
same,glycan array binding signal (z-score),[9],0.576
same,glycan array binding signal (z-score),[10],-0.32
same,glycan array binding signal (z-score),[11],-0.407
same,glycan array binding signal (z-score),[12],2.28
same,glycan array binding signal (z-score),[13],-0.594
same,glycan array binding signal (z-score),[14],-0.775
same,glycan array binding signal (z-score),[15],-0.205
same,glycan array binding signal (z-score),[16],0.338
same,glycan array binding signal (z-score),Fuc(a1-2)Gal6S(b1-4)Glc,0.521
same,glycan array binding signal (z-score),[17],0.393
same,glycan array binding signal (z-score),Fuc(a1-2)[Gal(a1-3)]Gal,-0.399
same,glycan array binding signal (z-score),[18],0.163
same,glycan array binding signal (z-score),[19],-0.61
same,glycan array binding signal (z-score),[20],-0.073
same,glycan array binding signal (z-score),[21],-0.083
same,glycan array binding signal (z-score),[22],0.769
same,glycan array binding signal (z-score),[23],-0.915
same,glycan array binding signal (z-score),[24],-0.703
same,glycan array binding signal (z-score),[25],-0.083
same,glycan array binding signal (z-score),[26],-0.855
same,glycan array binding signal (z-score),[27],-0.477
same,glycan array binding signal (z-score),[28],0.381
same,glycan array binding signal (z-score),[29],0.008
same,glycan array binding signal (z-score),[30],0.425
same,glycan array binding signal (z-score),[31],0.335
same,glycan array binding signal (z-score),[32],0.034
same,glycan array binding signal (z-score),[33],-1
same,glycan array binding signal (z-score),[34],-0.721
same,glycan array binding signal (z-score),[35],-0.403

# Laid out differently: entries from further up.
binder | measurement | setting | value
PX14343E-bfa-545-24-545 (Bacteroides fragilis) (protein) LDRYPQEELSDGSFWKTPDDANKVVSDLYGYLSTWDQDNDINSDNATMGIKWAAGNVSKGIYDPADQGWSGDYANVRQCNLILSKIDEIPDYPEADKTKALGQVYFFRAYIYFNLIRSFGDVPYIDKPLDLKDMEGITRMPRAEVYEKIMADFDKAIAALPTEWGASDYGRVTKGAAMAMKARAALYYGNWDTAATEAKNVMDLGLYELYDKDNTGKYAELFWEKADGCDEFILVTQFNYPDKTHYLMGWECFPTKGWGGMNPTQSLVDAFEDSEGAPISKSKIYDPTDPFKNRDPRLEVDILHDGEEMYGVTIKVAPLASSGSTGINQHNDATETGYYGQKWLDPSLDPLSDGWNMGKDWVHIRYAEVLLTYAEAKNELQGLDPEAFDAVNQVRRRVGMPELQNTDPSKPTYCATQDDLRQRIRNEWRVEFCLEGGKRMWDIRRWGIAKDVLNAPFEGLKYKIVDNPNDPDKKVDGGKMCILYQGDPIILSGSRYSDNNYLFPVPQSEIDLNPALTQNPGY | glycan array binding signal (z-score) | [15] | -0.205
same | glycan array binding signal (z-score) | [21] | -0.083
same | glycan array binding signal (z-score) | [26] | -0.855
